Assay results from patent US7741051B2, “Soluble ectodomain fragments of MET and uses thereof” (Medical Research Council, priority 2003, dated 2010).
No constants are given. Whether binding was seen depends on the method and setting. Some binding calls cover weakened binding; strength is not graded here.

By UniProt entry, the sequences of proteins in these tests, tags left out. Where a name states a change or a piece, a line headed by the entry shows the natural chain unless it says otherwise.
UniProt P14210: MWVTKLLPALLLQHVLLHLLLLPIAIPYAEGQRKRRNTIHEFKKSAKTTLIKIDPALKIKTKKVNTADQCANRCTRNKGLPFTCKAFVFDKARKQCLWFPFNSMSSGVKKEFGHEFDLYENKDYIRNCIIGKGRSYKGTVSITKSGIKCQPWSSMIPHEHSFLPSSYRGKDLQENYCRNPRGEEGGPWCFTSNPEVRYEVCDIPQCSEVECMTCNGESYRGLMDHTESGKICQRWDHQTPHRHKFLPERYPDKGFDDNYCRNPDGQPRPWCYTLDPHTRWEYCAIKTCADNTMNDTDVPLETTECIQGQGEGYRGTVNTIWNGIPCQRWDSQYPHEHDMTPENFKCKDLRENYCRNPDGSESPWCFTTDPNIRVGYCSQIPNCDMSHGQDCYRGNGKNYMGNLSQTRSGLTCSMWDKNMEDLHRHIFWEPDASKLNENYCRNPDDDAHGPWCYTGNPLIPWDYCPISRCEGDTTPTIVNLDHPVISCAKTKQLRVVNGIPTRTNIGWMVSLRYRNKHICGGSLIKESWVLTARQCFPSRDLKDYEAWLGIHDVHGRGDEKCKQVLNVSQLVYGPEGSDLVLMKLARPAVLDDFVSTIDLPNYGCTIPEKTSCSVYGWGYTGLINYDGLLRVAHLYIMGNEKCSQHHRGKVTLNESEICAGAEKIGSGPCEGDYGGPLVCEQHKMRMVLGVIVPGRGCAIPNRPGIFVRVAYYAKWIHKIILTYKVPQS

Key:
MET 25-928H (human) [1] = target: MET 25-928H (human) (UniProt P08581); assay: velocity sedimentation (analytical ultracentrifugation) with heparin; compatible only with a 1:1:1 complex; binary complex without heparin called unstable in solution
MET 25-928H (human) [2] = target: MET 25-928H (human) (UniProt P08581); assay: native agarose gel electrophoresis, equimolar HGF/SF and MET 25-928H (4x10^-6 M), with or without heparin
MET 25-928H (human) [3] = target: MET 25-928H (human) (UniProt P08581); assay: solid phase assay, MET928H coated at 2x10^-8 M, HGF/SF detected with sheep anti-HGF/SF and HRP anti-sheep
[4] = target: T1, recombinant single chain HGF/SF (R494E) (human, UniProt P14210 32-728); assay: solid phase assay, single chain (R494E) HGF/SF coated, dimeric MET detected with HRP anti-human IgG
T1 construct: also called single chain (R494E) HGF/SF

MET 25-928H (human) [5] = target: MET 25-928H (human) (UniProt P08581); assay: ELISA, MET928H coated on HisGrab or Maxisorp plates, streptavidin peroxidase detection

HGF/SF (from UniProt P14210 32-728) (ligand)
binding (MET 25-928H (human) [1]): binds
binding (MET 25-928H (human) [2]): binds
binding (MET 25-928H (human) [3]): binds

MET 25-519GH (from UniProt P08581 25-307; P08581 308-519) (Fc fusion)
binding [4]: binds

MET 25-567GH (from UniProt P08581 25-307; P08581 308-567) (Fc fusion)
binding [4]: binds

biotinylated HGF/SF (from UniProt P14210 32-728) (ligand)
binding (MET 25-928H (human) [5]): binds
